Measurements taken from publication PMC3869746.

The chains behind the UniProt entries cited, without tags or fusion partners.
UniProt E7CYC3, entry or part of it: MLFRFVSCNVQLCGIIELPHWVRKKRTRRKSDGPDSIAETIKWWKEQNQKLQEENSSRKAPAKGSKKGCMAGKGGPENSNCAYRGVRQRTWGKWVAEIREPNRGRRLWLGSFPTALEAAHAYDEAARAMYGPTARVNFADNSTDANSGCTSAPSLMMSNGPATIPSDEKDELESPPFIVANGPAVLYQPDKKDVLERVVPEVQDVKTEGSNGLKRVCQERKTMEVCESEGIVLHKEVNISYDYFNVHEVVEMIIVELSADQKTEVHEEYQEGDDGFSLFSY

Target: GST-OsDREB2A (Oryza sativa) (UniProt E7CYC3)
Test: EMSA
Settings: not given (EMSA as described previously, ref 7); recombinant protein; residues 1-281; protein details: N-terminal GST (pGEX-4T-2)

Sequence | binding result
ATTTCATGGAAGACCTGCTTTCATGGAAGACCTGCTT (double strand) [mGCC (mutated DRE)] | no binding
ATTTCATGGCCGACCTGCTTTCATGGCCGACCTGCTT (double strand) [DRE (WT)] | binds

Construct, isoform or probe ends are uncertain for at least one entry. Negatives hold for the conditions tested.
